Measured values: US20260116932
Protein sequences can lack the tags named with them.

Tested on: T1, ZFP45723-KRAB (ZFP-TF) (synthetic construct)
T1 sequence: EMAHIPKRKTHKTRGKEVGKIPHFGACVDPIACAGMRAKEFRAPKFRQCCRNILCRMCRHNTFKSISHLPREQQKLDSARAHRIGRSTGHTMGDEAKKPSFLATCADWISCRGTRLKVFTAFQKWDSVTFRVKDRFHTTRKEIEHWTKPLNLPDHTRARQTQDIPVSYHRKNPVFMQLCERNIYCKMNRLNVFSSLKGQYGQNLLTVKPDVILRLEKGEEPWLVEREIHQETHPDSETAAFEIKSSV
Test: activity in cells
Conditions: mutant HTT mRNA repression by AAV in HD iPSC-derived cortical neurons (allele-specific RT-qPCR); direct binding not measured; protein in cells; only the site is given

Sequence: AGCAGCAGCAGCAGCAGCAGCAGCAGCA (double strand) [HTT CAG repeat target site (45723)]
- activity on this sequence: active
